{"source": "PubChem BioAssay AID2685", "about": "(National Center for Advancing Translational Sciences (NCATS), 2010)", "assay": "qHTS Assay for Lipid Storage Modulators in Drosophila S3 Cells;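 as to cell number change: cells counted by Cell Tracker Red CMTPX staining in the red channel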", "conditions": "BODIPY lipid droplet fluorescence, 18-24 h; for cell number change: measured here: cell count max response, cells fed with added oleic acid", "method_in_brief": "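Drosophila S3 cells got compounds at several concentrations plus oleic acid (400 uM solution). Laser-scanning cytometry with 488 nm excitation read lipid droplets at 500-530 nm and cells at 575-640 nm. Percent activity was relative to 20 uM Triacsin C.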", "key": {"[1]": {"conditions": "measured here: lipid fluorescence (Fed channel) AC50, cells fed with added oleic acid"}, "[2]": {"conditions": "measured here: cell number channel AC50, cells fed with added oleic acid"}}, "note": "This is one part of the list. The main result of the screen is listed elsewhere. These columns were measured beside it and carry no call. The list favours compounds with an active or inconclusive main result. Potencies come from curve fits of mixed quality, noted in brackets."}
{"smiles": "O=C1Nc2ccccc2C(O)(C(=O)N2CCCCC2)N1c1ccccc1", "note": "(stereo not given)", "values": [{"measurement": "cell number change", "result": -3.71, "unit": "%"}]}
{"smiles": "CC1Cc2ccccc2N1C1=NS(=O)(=O)c2ccccc21", "note": "(stereo not given)", "values": [{"measurement": "cell number change", "result": -6.8, "unit": "%"}]}
{"smiles": "CCCCNc1nc(CC(C)=O)ns1", "values": [{"measurement": "cell number change", "result": -8.08, "unit": "%"}, {"measurement": "AC50", "setting": "[1]", "result": "0.731 µM [falling, full curve]"}]}
{"smiles": "C=CCn1c(SCC(=O)C(C)(C)C)nnc1-c1ccccn1", "values": [{"measurement": "cell number change", "result": 11.7, "unit": "%"}, {"measurement": "AC50", "setting": "[1]", "result": "0.00411 µM [rising, full curve, poor fit]"}]}
{"smiles": "COc1ccc(-c2nnn(CC(=O)Nc3sc4c(c3C#N)CCCC4)n2)cc1", "values": [{"measurement": "cell number change", "result": -36.9, "unit": "%"}, {"measurement": "AC50", "setting": "[2]", "result": "0.00461 µM [falling, full curve, poor fit]"}]}
{"smiles": "CC1=Nc2ccccc2/C1=C/c1nc(-c2ccc(C)s2)oc1O", "values": [{"measurement": "cell number change", "result": -9.13, "unit": "%"}, {"measurement": "AC50", "setting": "[2]", "result": "0.00411 µM [rising, full curve, poor fit]"}]}
{"smiles": "CC(NC(N)=O)C(=O)Nc1ccc(Cl)c(S(=O)(=O)Nc2ccc(Cl)cc2)c1", "note": "(stereo not given)", "values": [{"measurement": "cell number change", "result": 47.5, "unit": "%"}]}
{"smiles": "CCOC(=O)c1cnc(-n2nc(C)cc2C)nc1Nc1ccc(C)cc1", "values": [{"measurement": "AC50", "setting": "[1]", "result": "0.461 µM [rising, partial curve, poor fit]"}]}
{"smiles": "O=C(CCNC(=O)c1ccc(Cl)cc1)Nc1ccc(Cl)cc1F", "values": [{"measurement": "cell number change", "result": 16.2, "unit": "%"}, {"measurement": "AC50", "setting": "[1]", "result": "29.1 µM [rising, single point]"}]}
{"smiles": "O=C(COC(=O)c1cc(S(=O)(=O)N2CCOCC2)ccc1Cl)NCc1ccc2c(c1)OCO2", "values": [{"measurement": "cell number change", "result": -3.26, "unit": "%"}]}
{"smiles": "CC(=O)Nc1ccc(S(=O)(=O)NC2(C(F)(F)F)NC(=O)N(C3CCCC3)C2=O)cc1", "note": "(stereo not given)", "values": [{"measurement": "cell number change", "result": -11.4, "unit": "%"}, {"measurement": "AC50", "setting": "[1]", "result": "20.6 µM [falling, partial curve, poor fit]"}]}
{"smiles": "COc1ccc(NC(=S)N2CCN(C(c3ccccc3)c3ccccc3)CC2)c(OC)c1", "values": [{"measurement": "cell number change", "result": 16.9, "unit": "%"}, {"measurement": "AC50", "setting": "[1]", "result": "32.6 µM [rising, single point]"}]}
{"smiles": "O=C(COC(=O)c1ccccc1OC(F)F)Nc1ccc2[nH]c(=O)[nH]c2c1", "values": [{"measurement": "cell number change", "result": -8.5, "unit": "%"}]}
{"smiles": "CN(C)C(=O)c1cnc(Sc2ncc(C(F)(F)F)cc2Cl)n1C", "values": [{"measurement": "cell number change", "result": 17.4, "unit": "%"}]}
{"smiles": "N#Cc1ccccc1CSc1nnc(Cc2ccccc2)o1", "values": [{"measurement": "cell number change", "result": -44.9, "unit": "%"}, {"measurement": "AC50", "setting": "[2]", "result": "3.66 µM [falling, single point]"}]}
{"smiles": "C=CCNC(=S)NNC(=O)C(CCC(C)C)CC(C)(C)O", "note": "(stereo not given)", "values": [{"measurement": "cell number change", "result": 32.3, "unit": "%"}, {"measurement": "AC50", "setting": "[1]", "result": "0.731 µM [falling, full curve]"}]}
{"smiles": "CC(C)Cn1c(SCC(=O)N2CCOCC2)nc2ccccc2c1=O", "values": [{"measurement": "cell number change", "result": 32.3, "unit": "%"}]}
{"smiles": "Cc1nc(NCCCn2ccnc2)c2ccccc2n1", "values": [{"measurement": "cell number change", "result": -5.42, "unit": "%"}, {"measurement": "AC50", "setting": "[1]", "result": "0.517 µM [falling, full curve, poor fit]"}]}
{"smiles": "COc1ccc(OC)c(NC(=O)c2cc3oc4ccccc4c3cc2O)c1", "values": [{"measurement": "cell number change", "result": -46.4, "unit": "%"}, {"measurement": "AC50", "setting": "[2]", "result": "29.1 µM [falling, partial curve, poor fit]"}, {"measurement": "AC50", "setting": "[1]", "result": "0.82 µM [falling, partial curve]"}]}
{"smiles": "C[C@H](NC(=O)[C@@H]1CSC2c3ccccc3C(=O)N21)C(=O)NCCc1ccc(F)cc1", "note": "(stereo not given in full)", "values": [{"measurement": "cell number change", "result": 21.5, "unit": "%"}, {"measurement": "AC50", "setting": "[1]", "result": "29.1 µM [rising, partial curve]"}]}
{"smiles": "COc1ccc(-c2nn(Cc3ccccc3)cc2C(=O)N2CCN(c3ncccn3)CC2)cc1OC", "values": [{"measurement": "cell number change", "result": 33.1, "unit": "%"}, {"measurement": "AC50", "setting": "[2]", "result": "29.1 µM [rising, single point]"}, {"measurement": "AC50", "setting": "[1]", "result": "29.1 µM [rising, single point]"}]}
{"smiles": "COc1ccc(-c2cc(C(F)(F)F)c(C#N)c(SCC(=O)Nc3nc(C)co3)n2)cc1", "values": [{"measurement": "cell number change", "result": -17.8, "unit": "%"}, {"measurement": "AC50", "setting": "[1]", "result": "0.82 µM [falling, full curve, poor fit]"}]}
{"smiles": "OC(CCN1CCOCC1)c1ccccc1", "note": "(stereo not given)", "values": [{"measurement": "cell number change", "result": 30.9, "unit": "%"}, {"measurement": "AC50", "setting": "[2]", "result": "5.8 µM [rising, partial curve, poor fit]"}]}
{"smiles": "COc1ccc(C2C(C(=O)OCC(=O)N3CCCCC3)CCC(=O)N2c2ccc(OC)cc2)cc1", "note": "(stereo not given)", "values": [{"measurement": "cell number change", "result": -10.2, "unit": "%"}]}
{"smiles": "Nc1nnc(CSCc2ccc(Cl)cc2Cl)s1", "values": [{"measurement": "cell number change", "result": 2.4, "unit": "%"}, {"measurement": "AC50", "setting": "[1]", "result": "16.4 µM [rising, partial curve, poor fit]"}]}
{"smiles": "COC(=O)C1CCN(C(=O)NC2CCCCC2)CC1", "values": [{"measurement": "cell number change", "result": 12.7, "unit": "%"}, {"measurement": "AC50", "setting": "[1]", "result": "0.82 µM [falling, single point]"}]}
{"smiles": "CN(CC(=O)Nc1ccc(OC(F)(F)F)cc1)C(=O)C1CCC1", "values": [{"measurement": "cell number change", "result": -22.2, "unit": "%"}, {"measurement": "AC50", "setting": "[1]", "result": "11.6 µM [falling, single point]"}]}
{"smiles": "CCC(C)c1c(O)nc(SCc2ccccc2)[nH]c1=O", "note": "(stereo not given)", "values": [{"measurement": "cell number change", "result": 3.59, "unit": "%"}, {"measurement": "AC50", "setting": "[2]", "result": "0.291 µM [falling, full curve, poor fit]"}, {"measurement": "AC50", "setting": "[1]", "result": "0.0058 µM [falling, full curve, poor fit]"}]}
{"smiles": "COc1ccc(C(=O)N(C)C2CCCN(Cc3ccccc3F)C2)cc1OC", "note": "(stereo not given)", "values": [{"measurement": "cell number change", "result": 48.3, "unit": "%"}, {"measurement": "AC50", "setting": "[2]", "result": "16.4 µM [rising, partial curve, poor fit]"}]}
{"smiles": "Cc1cccc(N2CCN(C(=O)Cc3ccc(-n4c(=O)[nH]c5ccsc5c4=O)cc3)CC2C)c1", "note": "(stereo not given)", "values": [{"measurement": "cell number change", "result": 88, "unit": "%"}, {"measurement": "AC50", "setting": "[2]", "result": "16.4 µM [rising, partial curve, poor fit]"}, {"measurement": "AC50", "setting": "[1]", "result": "16.4 µM [rising, partial curve]"}]}
{"smiles": "O=C(CCN1CCN(CCO)CC1)Nc1ccc(C2CCCC2)cc1", "values": [{"measurement": "cell number change", "result": 23.3, "unit": "%"}, {"measurement": "AC50", "setting": "[1]", "result": "23.1 µM [rising, partial curve, poor fit]"}]}
{"smiles": "COc1cccc(COC(=O)c2ccc3c(c2)NC(=O)C(C)S3)c1OC", "note": "(stereo not given)", "values": [{"measurement": "AC50", "setting": "[1]", "result": "6.51 µM [falling, single point]"}]}
{"smiles": "CCOC(=O)C1CCCN(Cc2cc(OC)c(O)c(OC)c2)C1", "note": "(stereo not given)", "values": [{"measurement": "cell number change", "result": -95.4, "unit": "%"}, {"measurement": "AC50", "setting": "[2]", "result": "23.1 µM [falling, partial curve]"}, {"measurement": "AC50", "setting": "[1]", "result": "2.91 µM [falling, full curve]"}]}
{"smiles": "CCn1c(SCC(=O)Nc2ccccc2OC)nnc1-c1cnccn1", "values": [{"measurement": "cell number change", "result": 7.78, "unit": "%"}, {"measurement": "AC50", "setting": "[1]", "result": "1.03 µM [rising, partial curve]"}]}
{"smiles": "CCN(CC)c1ccc(NC(=S)NC(=O)c2cccs2)cc1", "values": [{"measurement": "cell number change", "result": -25.5, "unit": "%"}, {"measurement": "AC50", "setting": "[1]", "result": "16.4 µM [falling, single point]"}]}
{"smiles": "CC1(c2ccc3ccccc3c2)NC(=O)N(CC(=O)NCc2cccs2)C1=O", "note": "(stereo not given)", "values": [{"measurement": "cell number change", "result": 6.41, "unit": "%"}, {"measurement": "AC50", "setting": "[1]", "result": "29.1 µM [rising, single point]"}]}
{"smiles": "Cc1ccc(S(=O)(=O)N2CCC(NC(=O)C3CCCCC3)CC2)cc1", "values": [{"measurement": "cell number change", "result": 3.48, "unit": "%"}, {"measurement": "AC50", "setting": "[1]", "result": "6.51 µM [rising, single point]"}]}
{"smiles": "Cc1ccc(S(N)(=O)=O)cc1", "values": [{"measurement": "cell number change", "result": 11.6, "unit": "%"}, {"measurement": "AC50", "setting": "[1]", "result": "29.1 µM [rising, single point]"}]}
{"smiles": "CC(C)(C)c1ccc(OCC(=O)NCc2ccco2)cc1", "values": [{"measurement": "cell number change", "result": -45.9, "unit": "%"}, {"measurement": "AC50", "setting": "[2]", "result": "32.6 µM [falling, single point]"}, {"measurement": "AC50", "setting": "[1]", "result": "0.00461 µM [falling, full curve, poor fit]"}]}
{"smiles": "CC(=O)c1ccc(N2CCN(C(=O)c3ccc4ccccc4n3)CC2)cc1", "values": [{"measurement": "cell number change", "result": 3.53, "unit": "%"}]}
